Results published in the supplement of paper PMC8728848.
The list shows a part of the results.

Tests used:
Experiment in all cases: glycan array binding signal (z-score within array); higher = stronger binding
Conditions in all cases: glycan notation: IUPAC condensed, linker removed
Gal(a1-6)Glc = molecular target: Gal(a1-6)Glc
In short: (§1)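 Negative Z-scores can be read as non-binding. The Z-score is calculated within each array and then averaged across arrays of one protein sequence at different concentrations or buffers and across linkers. Arrays, 3228 in all, were curated from the Consortium for Functional Glycomics database and kept only where the protein sequence was available.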

Gal(b1-2)Gal = molecular target: Gal(b1-2)Gal
In short: as §1

Gal(b1-3)Gal = molecular target: Gal(b1-3)Gal
In short: as §1

Gal(b1-3)Gal(b1-4)GlcNAc = molecular target: Gal(b1-3)Gal(b1-4)GlcNAc
In short: as §1

[1] = molecular target: Gal(b1-3)Gal(b1-4)GlcNAc(b1-2)Man(a1-3)[Gal(b1-3)Gal(b1-4)GlcNAc(b1-2)Man(a1-6)]Man(b1-4)GlcNAc(b1-4)GlcNAc
In short: as §1

Gal(b1-3)GalNAc = molecular target: Gal(b1-3)GalNAc
In short: as §1

[2] = molecular target: Gal(b1-3)GalNAc(a1-3)[Fuc(a1-2)]Gal(b1-4)Glc
In short: as §1

[3] = molecular target: Gal(b1-3)GalNAc(a1-3)[Fuc(a1-2)]Gal(b1-4)GlcNAc
In short: as §1

Gal(b1-3)GalNAc(b1-3)Gal = molecular target: Gal(b1-3)GalNAc(b1-3)Gal
In short: as §1

[4] = molecular target: Gal(b1-3)GalNAc(b1-3)Gal(a1-4)Gal(b1-4)Glc
In short: as §1

[5] = molecular target: Gal(b1-3)GalNAc(b1-4)Gal(b1-4)Glc
In short: as §1

[6] = molecular target: Gal(b1-3)GalNAc(b1-4)[Neu5Ac(a2-3)]Gal(b1-4)Glc
In short: as §1

Gal(b1-3)GlcNAc = molecular target: Gal(b1-3)GlcNAc
In short: as §1

[7] = molecular target: Gal(b1-3)GlcNAc(a1-3)Gal(b1-4)GlcNAc
In short: as §1

[8] = molecular target: Gal(b1-3)GlcNAc(a1-6)Gal(b1-4)GlcNAc
In short: as §1

Gal(b1-3)GlcNAc(b1-2)Man = molecular target: Gal(b1-3)GlcNAc(b1-2)Man
In short: as §1

[9] = molecular target: Gal(b1-3)GlcNAc(b1-2)Man(a1-3)[Gal(b1-3)GlcNAc(b1-2)Man(a1-6)]Man(b1-4)GlcNAc(b1-4)GlcNAc
In short: as §1

[10] = molecular target: Gal(b1-3)GlcNAc(b1-2)Man(a1-3)[Gal(b1-3)GlcNAc(b1-2)Man(a1-6)]Man(b1-4)GlcNAc(b1-4)[Fuc(a1-6)]GlcNAc
In short: as §1

[11] = molecular target: Gal(b1-3)GlcNAc(b1-2)Man(a1-3)[GlcNAc(b1-4)][Gal(b1-3)GlcNAc(b1-2)Man(a1-6)]Man(b1-4)GlcNAc(b1-4)GlcNAc
In short: as §1

[12] = molecular target: Gal(b1-3)GlcNAc(b1-2)[Gal(b1-3)GlcNAc(b1-6)]Man(a1-6)[Gal(b1-3)GlcNAc(b1-2)Man(a1-3)]Man(b1-4)GlcNAc(b1-4)GlcNAc
In short: as §1

[13] = molecular target: Gal(b1-3)GlcNAc(b1-3)Gal(b1-3)GlcNAc
In short: as §1

[14] = molecular target: Gal(b1-3)GlcNAc(b1-3)Gal(b1-4)Glc
In short: as §1

[15] = molecular target: Gal(b1-3)GlcNAc(b1-3)Gal(b1-4)GlcNAc
In short: as §1

[16] = molecular target: Gal(b1-3)GlcNAc(b1-3)Gal(b1-4)GlcNAc(b1-2)Man(a1-3)[Gal(b1-3)GlcNAc(b1-3)Gal(b1-4)GlcNAc(b1-2)Man(a1-6)]Man(b1-4)GlcNAc(b1-4)GlcNAc
In short: as §1

[17] = molecular target: Gal(b1-3)GlcNAc(b1-3)Gal(b1-4)GlcNAc(b1-2)[Gal(b1-3)GlcNAc(b1-3)Gal(b1-4)GlcNAc(b1-6)]Man(a1-6)[Gal(b1-3)GlcNAc(b1-3)Gal(b1-4)GlcNAc(b1-2)Man(a1-3)]Man(b1-4)GlcNAc(b1-4)[Fuc(a1-6)]GlcNAc
In short: as §1

[18] = molecular target: Gal(b1-3)GlcNAc(b1-3)Gal(b1-4)GlcNAc(b1-3)Gal(b1-4)GlcNAc(b1-2)[Gal(b1-3)GlcNAc(b1-3)Gal(b1-4)GlcNAc(b1-3)Gal(b1-4)GlcNAc(b1-6)]Man(a1-6)[Gal(b1-3)GlcNAc(b1-3)Gal(b1-4)GlcNAc(b1-3)Gal(b1-4)GlcNAc(b1-2)Man(a1-3)]Man(b1-4)GlcNAc(b1-4)[Fuc(a1-6)]GlcNAc
In short: as §1

[19] = molecular target: Gal(b1-3)GlcNAc(b1-3)Gal(b1-4)GlcNAc(b1-6)[Gal(b1-3)GlcNAc(b1-3)]Gal(b1-4)Glc
In short: as §1

[20] = molecular target: Gal(b1-3)GlcNAc(b1-3)Gal(b1-4)[Fuc(a1-3)]GlcNAc
In short: as §1

[21] = molecular target: Gal(b1-3)GlcNAc(b1-3)Gal(b1-4)[Fuc(a1-3)]GlcNAc(b1-6)[Gal(b1-3)GlcNAc(b1-3)]Gal(b1-4)Glc
In short: as §1

[22] = molecular target: Gal(b1-3)GlcNAc(b1-3)GalNAc
In short: as §1

[23] = molecular target: Gal(b1-3)GlcNAc(b1-6)Gal(b1-4)GlcNAc
In short: as §1

[24] = molecular target: Gal(b1-3)GlcNAc(b1-6)GalNAc
In short: as §1

[25] = molecular target: Gal(b1-3)GlcNAc(b1-6)[Gal(b1-3)]GalNAc
In short: as §1

Gal(b1-3)GlcNAc6S = molecular target: Gal(b1-3)GlcNAc6S
In short: as §1

[26] = molecular target: Gal(b1-3)[Fuc(a1-4)]GlcNAc
In short: as §1

[27] = molecular target: Gal(b1-3)[Fuc(a1-4)]GlcNAc(b1-2)Man
In short: as §1

[28] = molecular target: Gal(b1-3)[Fuc(a1-4)]GlcNAc(b1-2)Man(a1-3)[Gal(b1-3)[Fuc(a1-4)]GlcNAc(b1-2)Man(a1-6)]Man(b1-4)GlcNAc(b1-4)GlcNAc
In short: as §1

[29] = molecular target: Gal(b1-3)[Fuc(a1-4)]GlcNAc(b1-2)Man(a1-3)[Gal(b1-3)[Fuc(a1-4)]GlcNAc(b1-2)Man(a1-6)]Man(b1-4)GlcNAc(b1-4)[Fuc(a1-6)]GlcNAc
In short: as §1

B1: CRT-1 (Homo sapiens), P27797 (protein)
chain: MLLSVPLLLGLLGLAVAEPAVYFKEQFLDGDGWTSRWIESKHKSDFGKFVLSSGKFYGDEEKDKGLQTSQDARFYALSASFEPFSNKGQTLVVQFTVKHEQNIDCGGGYVKLFPNSLDQTDMHGDSEYNIMFGPDICGPGTKKVHVIFNYKGKNVLINKDIRCKDDEFTHLYTLIVRPDNTYEVKIDNSQVESGSLEDDWDFLPPKKIKDPDASKPEDWDERAKIDDPTDSKPEDWDKPEHIPDPDAKKPEDWDEEMDGEWEPPVIQNPEYKGEWKPRQIDNPDYKGTWIHPEIDNPEYSPDPSIYAYDNFGVLGLDLWQVKSGTIFDNFLITNDEAYAEEFGNETWGVTKAAEKQMKDKQDEEQRLKEEEEDKKRKEEEEAEDKEDDEDKDEDEEDEEDKEEDEEEDVPGQAKDEL
glycan array binding signal (z-score) (Gal(a1-6)Glc): -0.077 | glycan array binding signal (z-score) (Gal(b1-2)Gal): -0.064 | glycan array binding signal (z-score) (Gal(b1-3)Gal): 0.051 | glycan array binding signal (z-score) (Gal(b1-3)Gal(b1-4)GlcNAc): 1.47 | glycan array binding signal (z-score) [1]: 0.485 | glycan array binding signal (z-score) (Gal(b1-3)GalNAc): -0.124 | glycan array binding signal (z-score) [2]: 0.282 | glycan array binding signal (z-score) [3]: -0.212 | glycan array binding signal (z-score) (Gal(b1-3)GalNAc(b1-3)Gal): -0.571 | glycan array binding signal (z-score) [4]: -0.599 | glycan array binding signal (z-score) [5]: -0.123 | glycan array binding signal (z-score) [6]: -0.157 | glycan array binding signal (z-score) (Gal(b1-3)GlcNAc): -0.063 | glycan array binding signal (z-score) [7]: 0.211 | glycan array binding signal (z-score) [8]: -0.382 | glycan array binding signal (z-score) (Gal(b1-3)GlcNAc(b1-2)Man): -0.062 | glycan array binding signal (z-score) [9]: 0.523 | glycan array binding signal (z-score) [10]: 0.223 | glycan array binding signal (z-score) [11]: -0.882 | glycan array binding signal (z-score) [12]: 0.58 | glycan array binding signal (z-score) [13]: -0.577 | glycan array binding signal (z-score) [14]: -0.33 | glycan array binding signal (z-score) [15]: -0.275 | glycan array binding signal (z-score) [16]: -0.574 | glycan array binding signal (z-score) [17]: 1.48 | glycan array binding signal (z-score) [18]: 0.15 | glycan array binding signal (z-score) [19]: 0.174 | glycan array binding signal (z-score) [20]: -0.21 | glycan array binding signal (z-score) [21]: 0.691 | glycan array binding signal (z-score) [22]: -0.652 | glycan array binding signal (z-score) [23]: -0.021 | glycan array binding signal (z-score) [24]: 0.8 | glycan array binding signal (z-score) [25]: -1.19 | glycan array binding signal (z-score) (Gal(b1-3)GlcNAc6S): 0.611 | glycan array binding signal (z-score) [26]: -0.587 | glycan array binding signal (z-score) [27]: 0.701 | glycan array binding signal (z-score) [28]: 2.33 | glycan array binding signal (z-score) [29]: 0.345
